From the M2OR odorant receptor database
This is a selection; strong and weak results do not stand in their true shares. The calls were merged from several studies; some rest on single wells. Some of the results follow.

Legend:
Settings in all cases: stereoisomer not certain
[1] = target: T1, OR8D1 (Homo sapiens) (UniProt Q8WZ84)
T1 sequence (whole entry): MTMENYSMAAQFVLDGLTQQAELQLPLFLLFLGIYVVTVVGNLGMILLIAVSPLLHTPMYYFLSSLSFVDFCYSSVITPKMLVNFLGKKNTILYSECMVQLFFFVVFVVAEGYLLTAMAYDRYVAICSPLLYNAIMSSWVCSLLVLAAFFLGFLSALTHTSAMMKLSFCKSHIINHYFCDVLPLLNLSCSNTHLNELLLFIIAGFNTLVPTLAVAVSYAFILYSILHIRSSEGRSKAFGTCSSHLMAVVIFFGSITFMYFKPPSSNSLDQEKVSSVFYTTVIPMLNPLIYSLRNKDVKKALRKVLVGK
Summary of the method: (§1)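 Each receptor–molecule pair is labelled responsive or non-responsive (inactive) according to whether the original authors judged the measured signal statistically different from baseline. The data were taken from the main text and supplementary material of published papers and checked for typos and inconsistencies. Assay methods differed by source, with transient luciferase assays in mammalian cell lines being common.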

[2] = target: T2, OR8D2 (Homo sapiens) (UniProt Q9GZM6)
T2 sequence (whole entry): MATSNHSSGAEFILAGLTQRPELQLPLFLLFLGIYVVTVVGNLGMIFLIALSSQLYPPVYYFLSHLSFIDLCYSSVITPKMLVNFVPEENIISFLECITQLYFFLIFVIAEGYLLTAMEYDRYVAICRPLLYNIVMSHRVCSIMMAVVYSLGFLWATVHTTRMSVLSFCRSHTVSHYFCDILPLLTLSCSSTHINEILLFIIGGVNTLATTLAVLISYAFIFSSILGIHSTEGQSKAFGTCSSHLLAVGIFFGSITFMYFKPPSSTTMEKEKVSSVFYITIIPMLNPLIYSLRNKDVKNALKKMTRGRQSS
Summary of the method: as §1

[3] = system: T3, OR8D4
T3 sequence (whole entry): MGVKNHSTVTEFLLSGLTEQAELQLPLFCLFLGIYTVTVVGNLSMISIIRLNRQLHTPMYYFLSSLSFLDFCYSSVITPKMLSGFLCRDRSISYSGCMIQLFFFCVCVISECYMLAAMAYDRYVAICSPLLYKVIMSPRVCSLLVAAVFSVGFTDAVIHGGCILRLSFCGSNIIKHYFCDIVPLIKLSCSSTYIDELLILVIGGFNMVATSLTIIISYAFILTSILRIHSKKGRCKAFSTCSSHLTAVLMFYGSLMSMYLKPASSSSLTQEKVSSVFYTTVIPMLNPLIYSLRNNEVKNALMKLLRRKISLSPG
Summary of the method: as §1

[4] = target: T4, OR8G1 (Homo sapiens) (UniProt Q15617)
T4 sequence (whole entry): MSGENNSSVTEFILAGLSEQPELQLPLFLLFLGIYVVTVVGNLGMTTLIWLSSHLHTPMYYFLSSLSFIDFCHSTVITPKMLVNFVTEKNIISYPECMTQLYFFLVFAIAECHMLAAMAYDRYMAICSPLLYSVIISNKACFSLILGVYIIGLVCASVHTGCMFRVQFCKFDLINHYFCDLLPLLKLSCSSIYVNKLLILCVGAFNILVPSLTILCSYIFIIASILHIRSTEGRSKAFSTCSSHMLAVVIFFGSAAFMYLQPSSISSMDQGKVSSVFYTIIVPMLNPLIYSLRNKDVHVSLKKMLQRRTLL
Summary of the method: as §1

[5] = target: T5, OR8G5 (Homo sapiens) (UniProt Q8NG78)
T5 sequence (whole entry): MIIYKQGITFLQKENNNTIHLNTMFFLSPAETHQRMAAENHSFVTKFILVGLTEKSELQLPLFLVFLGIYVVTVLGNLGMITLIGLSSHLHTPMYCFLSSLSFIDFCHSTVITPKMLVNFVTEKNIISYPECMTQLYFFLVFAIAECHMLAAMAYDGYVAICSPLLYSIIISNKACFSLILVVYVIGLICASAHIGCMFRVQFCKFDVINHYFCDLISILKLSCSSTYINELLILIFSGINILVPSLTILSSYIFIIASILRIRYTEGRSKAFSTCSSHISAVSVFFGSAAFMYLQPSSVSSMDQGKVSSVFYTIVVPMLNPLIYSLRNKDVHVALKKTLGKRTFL
Summary of the method: as §1

[6] = system: T6, OR8G5
T6 sequence (whole entry): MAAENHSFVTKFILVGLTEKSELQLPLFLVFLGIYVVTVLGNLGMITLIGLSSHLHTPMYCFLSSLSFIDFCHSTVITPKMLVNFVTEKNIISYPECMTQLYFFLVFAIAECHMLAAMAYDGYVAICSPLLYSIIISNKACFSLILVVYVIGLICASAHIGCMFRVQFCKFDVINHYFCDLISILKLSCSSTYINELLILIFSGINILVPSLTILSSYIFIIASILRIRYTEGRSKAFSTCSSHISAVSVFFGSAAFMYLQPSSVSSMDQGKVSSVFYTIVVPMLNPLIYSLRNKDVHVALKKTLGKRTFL
Summary of the method: as §1

[7] = target: T7, OR8H1 (Homo sapiens) (UniProt Q8NGG4)
T7 sequence (whole entry): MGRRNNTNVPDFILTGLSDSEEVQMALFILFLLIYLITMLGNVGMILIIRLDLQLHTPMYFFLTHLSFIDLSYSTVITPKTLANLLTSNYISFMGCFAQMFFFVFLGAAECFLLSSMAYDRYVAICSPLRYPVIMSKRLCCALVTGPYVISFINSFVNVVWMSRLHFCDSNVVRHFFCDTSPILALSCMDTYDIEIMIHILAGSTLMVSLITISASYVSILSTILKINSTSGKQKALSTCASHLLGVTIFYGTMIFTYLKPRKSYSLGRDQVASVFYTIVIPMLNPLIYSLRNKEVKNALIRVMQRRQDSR
Summary of the method: as §1

[8] = system: T8, OR8H2
T8 sequence (whole entry): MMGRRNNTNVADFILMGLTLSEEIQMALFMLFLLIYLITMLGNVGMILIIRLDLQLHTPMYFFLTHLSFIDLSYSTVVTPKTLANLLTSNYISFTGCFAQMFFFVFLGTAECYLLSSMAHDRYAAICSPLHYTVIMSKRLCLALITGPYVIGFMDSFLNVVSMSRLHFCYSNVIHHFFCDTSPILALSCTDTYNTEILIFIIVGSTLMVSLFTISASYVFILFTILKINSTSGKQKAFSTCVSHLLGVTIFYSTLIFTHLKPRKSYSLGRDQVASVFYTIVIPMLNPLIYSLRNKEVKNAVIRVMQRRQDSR
Summary of the method: as §1
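Note: active if original authors judged signal statistically different from baseline.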

C=CCc1ccc(O)c(OC)c1
odorant receptor agonist call [1]: inactive

COc1cc(C)ccc1O
odorant receptor agonist call [1]: inactive | odorant receptor agonist call [2]: inactive | odorant receptor agonist call [3]: inactive | odorant receptor agonist call [4]: inactive | odorant receptor agonist call [5]: inactive | odorant receptor agonist call [6]: inactive | odorant receptor agonist call [7]: inactive | odorant receptor agonist call [8]: inactive

CC(C)CCC(=O)O
odorant receptor agonist call [1]: inactive | odorant receptor agonist call [2]: inactive | odorant receptor agonist call [3]: inactive | odorant receptor agonist call [4]: inactive | odorant receptor agonist call [5]: inactive | odorant receptor agonist call [6]: inactive | odorant receptor agonist call [7]: inactive | odorant receptor agonist call [8]: inactive

c1cnccn1
odorant receptor agonist call [1]: inactive | odorant receptor agonist call [2]: inactive | odorant receptor agonist call [3]: inactive | odorant receptor agonist call [4]: inactive | odorant receptor agonist call [5]: inactive | odorant receptor agonist call [6]: inactive | odorant receptor agonist call [7]: inactive | odorant receptor agonist call [8]: inactive

CCCCCC(=O)O
odorant receptor agonist call [1]: inactive | odorant receptor agonist call [2]: inactive | odorant receptor agonist call [3]: inactive | odorant receptor agonist call [4]: inactive | odorant receptor agonist call [5]: inactive | odorant receptor agonist call [6]: inactive | odorant receptor agonist call [7]: inactive | odorant receptor agonist call [8]: inactive

CCC=CCCO
odorant receptor agonist call [1]: inactive | odorant receptor agonist call [2]: inactive | odorant receptor agonist call [3]: inactive | odorant receptor agonist call [4]: inactive | odorant receptor agonist call [5]: inactive | odorant receptor agonist call [6]: inactive | odorant receptor agonist call [7]: inactive | odorant receptor agonist call [8]: inactive

CCCCCC(C)=O
odorant receptor agonist call [1]: inactive | odorant receptor agonist call [2]: inactive | odorant receptor agonist call [3]: inactive | odorant receptor agonist call [4]: inactive | odorant receptor agonist call [5]: active | odorant receptor agonist call [6]: inactive | odorant receptor agonist call [7]: inactive | odorant receptor agonist call [8]: inactive

CC1=NC(C)SC1C (configuration not stated)
odorant receptor agonist call [1]: inactive | odorant receptor agonist call [2]: inactive | odorant receptor agonist call [3]: inactive | odorant receptor agonist call [4]: inactive | odorant receptor agonist call [5]: inactive | odorant receptor agonist call [6]: inactive | odorant receptor agonist call [7]: inactive | odorant receptor agonist call [8]: inactive

CCCC(=O)O
odorant receptor agonist call [1]: inactive | odorant receptor agonist call [2]: inactive | odorant receptor agonist call [3]: inactive | odorant receptor agonist call [4]: inactive | odorant receptor agonist call [5]: inactive | odorant receptor agonist call [6]: inactive | odorant receptor agonist call [7]: inactive | odorant receptor agonist call [8]: inactive

COc1ccccc1O
odorant receptor agonist call [1]: inactive | odorant receptor agonist call [2]: inactive | odorant receptor agonist call [3]: inactive | odorant receptor agonist call [4]: inactive | odorant receptor agonist call [5]: inactive | odorant receptor agonist call [6]: inactive | odorant receptor agonist call [7]: inactive | odorant receptor agonist call [8]: inactive

CC1COCc2cc3c(cc21)C(C)(C)C(C)C3(C)C (configuration not stated)
odorant receptor agonist call [1]: inactive | odorant receptor agonist call [2]: inactive | odorant receptor agonist call [3]: inactive | odorant receptor agonist call [4]: active | odorant receptor agonist call [5]: inactive | odorant receptor agonist call [6]: active | odorant receptor agonist call [7]: active | odorant receptor agonist call [8]: inactive

COC(=O)c1ccccc1
odorant receptor agonist call [1]: inactive | odorant receptor agonist call [2]: inactive | odorant receptor agonist call [3]: active | odorant receptor agonist call [4]: inactive | odorant receptor agonist call [5]: inactive | odorant receptor agonist call [6]: inactive | odorant receptor agonist call [7]: inactive | odorant receptor agonist call [8]: inactive

C=CC(C)(O)CCC=C(C)C (configuration not stated)
odorant receptor agonist call [1]: inactive | odorant receptor agonist call [2]: inactive | odorant receptor agonist call [3]: inactive | odorant receptor agonist call [4]: inactive | odorant receptor agonist call [5]: inactive | odorant receptor agonist call [6]: inactive | odorant receptor agonist call [7]: inactive | odorant receptor agonist call [8]: inactive
